# The full ranking holds about 33,000 sequences; the median of “E-score (-0.5 to 0.5)” is about -0.0034, and the highest 2% start at about 0.25. The list shows a part of the results.
# Target: T1, Yap3 (UniProt P38749)
# T1 sequence: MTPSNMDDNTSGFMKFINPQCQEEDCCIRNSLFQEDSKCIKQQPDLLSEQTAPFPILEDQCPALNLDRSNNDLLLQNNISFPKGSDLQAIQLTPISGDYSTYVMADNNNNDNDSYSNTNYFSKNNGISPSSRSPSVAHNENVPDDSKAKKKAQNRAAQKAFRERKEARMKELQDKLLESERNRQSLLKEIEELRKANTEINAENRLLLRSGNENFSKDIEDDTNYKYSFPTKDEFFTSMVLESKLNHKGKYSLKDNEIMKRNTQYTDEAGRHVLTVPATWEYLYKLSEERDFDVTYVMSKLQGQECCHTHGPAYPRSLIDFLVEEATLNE
# Assay: PBM E-score (8-mer binding enrichment) (E-score (-0.5 to 0.5)); higher = stronger / more preferred TF binding
# Conditions: protein concentration: 100 nM; construct: GST-full length
# In short: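 Using PURExpress in vitro transcription/translation, GST-tagged yeast transcription factors were made in full-length or DNA-binding-domain form. These were applied at about 100-200 nM to double-stranded universal all-10-mer Agilent arrays, and bound protein was detected with fluorescent anti-GST. Scans were normalised with masliner before the Universal PBM Analysis Suite assigned E-scores to ungapped eight-base words pooled with their reverse complements.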
row,Sequence,PBM E-score
1,ACTGGTAG,-0.0187
2,CTGGGCAA,0.00899
3,CACTTATC,0.152
4,AAAATAGC,-0.0905
5,CAGCCTCA,-0.0498
6,ACTTTTTC,0.0431
7,CGTGTTGC,-0.00931
8,CGATCGCG,0.182
9,ACGGACAA,0.191
10,AGCAAACT,0.158
11,AGTAACTG,0.0876
12,CACACAAG,0.00224
13,AACTAATT,0.149
14,CGTCGTTA,-0.0771
15,GCTTTCTA,0.246
16,GTAGAACA,-0.21
17,GGCTGTTA,-0.0091
18,GGCGACCA,-0.3
19,ACAGCACT,-0.0309
20,CGAAGCAC,-0.0204
21,TATACATA,0.17
22,AAAACTGG,0.144

row,Sequence,PBM E-score
1,ACCTCGCC,-0.223
2,CGGGACAC,-0.162
3,CAATGTTA,0.0767
4,GTCGGACA,0.0371
5,TGGAGACA,0.155
6,TTCAAAAA,0.0865
7,TAAGCTTA,0.164
8,CAAGCAAA,0.00556
9,CCATCTGA,-0.0418
10,CACACATC,-0.0233
11,ACTGCATG,0.0758
12,TCAGTTAA,0.126
13,ACAGCATG,-0.0202
14,AATAGCCT,-0.113
15,CCAGTGTA,0.127
16,AGGATATA,0.161
17,GCTTTAGA,-0.0444
18,AGAATATG,0.224
19,GCCGTCAC,-0.0282
20,CTATTCTA,0.15
21,AACTTCCT,0.0408
22,CAGTAGAA,0.138

# For reference, part of the list above.
row,Sequence,PBM E-score
1,ACCTCGCC,-0.223
2,CGGGACAC,-0.162
3,CAATGTTA,0.0767
4,GTCGGACA,0.0371

# The results go on:

row,Sequence,PBM E-score
1,CGGGTGAC,-0.211
2,GCGACGCC,0.00425
3,AATTGCGG,-0.0342
4,GTTCGAGA,0.0678
5,ATAAAGCC,-0.0888
6,ACTGGGGG,-0.324
7,CACAAGGA,0.00224
8,CCCTATAG,-0.057
9,GTAGTAAC,-0.0227
10,AACGCCGC,0.0161
11,CTGAGCAG,-0.0643
12,CTTACAAC,0.0598
13,CGTTTACC,0.15
14,GATCCAAC,-0.135
15,AGGTATCC,0.048
16,ACATACAC,0.139
17,CAAGAATG,0.0283
18,GATAACAC,0.195
19,CAGAACTC,-0.041
20,AATGATGG,0.203
21,AATTCCCG,-0.0337
22,ATGGTGAC,-0.232

row,Sequence,PBM E-score
1,AGGGACTA,-0.0104
2,CTTCATCA,0.0592
3,CGATAGGC,-0.0751
4,ATCAGGGC,-0.111
5,GGAGGAAA,-0.0738
6,GTGCTGCA,0.0289
7,GCGTGCGA,-0.144
8,GCTGACGA,0.123
9,CCCGGAGA,-0.117
10,CGTGAAAA,0.22
11,AGGAGGGA,-0.179
12,GTTTCAAA,0.103
13,AGGTCGCA,-0.0369
14,CGTAGTGA,-0.0881
15,ACGGCAGC,-0.018
16,ACATACTC,0.0688
17,AATGTAGC,0.0687
18,GACACCAC,-0.22
19,AGATAAAT,0.219
20,ATTGGGTG,0.174
